Measurements published in PMC9426488.
Results are given in words; binding and its absence hold for the method and conditions named. Binding seen in cells or lysates may run through a third protein. Here binding means that the protein was enriched with, or labelled near, the bait; the list need not be complete.

Chains of the proteins cited; added tags and fusions are not shown. Lines headed by an entry give the natural chain unless they say otherwise; changes in a name come on top.
UniProt S8GNR6: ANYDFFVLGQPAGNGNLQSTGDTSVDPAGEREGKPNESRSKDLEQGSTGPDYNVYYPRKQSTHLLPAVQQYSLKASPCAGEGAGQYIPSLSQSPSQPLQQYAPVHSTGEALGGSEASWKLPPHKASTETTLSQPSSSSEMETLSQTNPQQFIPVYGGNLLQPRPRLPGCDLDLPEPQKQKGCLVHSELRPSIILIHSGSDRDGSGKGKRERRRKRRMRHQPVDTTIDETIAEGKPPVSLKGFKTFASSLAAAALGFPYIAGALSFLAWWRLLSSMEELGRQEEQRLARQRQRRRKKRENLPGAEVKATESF
UniProt Q99816: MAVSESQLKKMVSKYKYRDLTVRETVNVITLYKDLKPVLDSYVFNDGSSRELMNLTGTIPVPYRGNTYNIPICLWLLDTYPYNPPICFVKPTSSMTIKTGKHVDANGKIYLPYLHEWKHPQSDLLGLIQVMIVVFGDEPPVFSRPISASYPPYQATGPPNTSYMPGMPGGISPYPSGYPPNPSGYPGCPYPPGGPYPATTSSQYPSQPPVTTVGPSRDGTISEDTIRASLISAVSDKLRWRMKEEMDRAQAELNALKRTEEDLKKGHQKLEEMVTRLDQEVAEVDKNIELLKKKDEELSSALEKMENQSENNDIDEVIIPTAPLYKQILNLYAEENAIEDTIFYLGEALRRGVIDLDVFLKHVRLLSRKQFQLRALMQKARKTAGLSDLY
UniProt Q8WUM4: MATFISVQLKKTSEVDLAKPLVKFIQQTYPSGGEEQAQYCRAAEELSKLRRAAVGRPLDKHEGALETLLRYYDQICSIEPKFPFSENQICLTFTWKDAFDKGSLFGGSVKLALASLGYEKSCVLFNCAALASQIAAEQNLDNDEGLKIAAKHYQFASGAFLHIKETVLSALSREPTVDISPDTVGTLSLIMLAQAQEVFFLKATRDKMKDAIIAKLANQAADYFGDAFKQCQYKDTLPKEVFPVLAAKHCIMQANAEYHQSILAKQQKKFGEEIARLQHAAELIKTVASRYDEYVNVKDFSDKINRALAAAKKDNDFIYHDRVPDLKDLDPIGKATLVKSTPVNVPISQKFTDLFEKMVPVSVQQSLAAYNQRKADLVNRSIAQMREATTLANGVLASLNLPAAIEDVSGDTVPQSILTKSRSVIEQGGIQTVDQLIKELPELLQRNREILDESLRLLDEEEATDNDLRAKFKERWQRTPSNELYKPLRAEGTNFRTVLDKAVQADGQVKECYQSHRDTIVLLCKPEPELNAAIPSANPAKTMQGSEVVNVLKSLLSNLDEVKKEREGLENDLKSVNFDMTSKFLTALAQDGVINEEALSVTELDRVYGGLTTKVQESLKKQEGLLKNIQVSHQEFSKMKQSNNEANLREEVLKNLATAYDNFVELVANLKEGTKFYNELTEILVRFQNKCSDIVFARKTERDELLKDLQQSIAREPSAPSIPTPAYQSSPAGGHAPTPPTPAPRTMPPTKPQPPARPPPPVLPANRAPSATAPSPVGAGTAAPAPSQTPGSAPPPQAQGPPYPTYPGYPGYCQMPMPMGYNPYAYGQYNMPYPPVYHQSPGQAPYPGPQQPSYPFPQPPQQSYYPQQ
UniProt Q8NEZ2: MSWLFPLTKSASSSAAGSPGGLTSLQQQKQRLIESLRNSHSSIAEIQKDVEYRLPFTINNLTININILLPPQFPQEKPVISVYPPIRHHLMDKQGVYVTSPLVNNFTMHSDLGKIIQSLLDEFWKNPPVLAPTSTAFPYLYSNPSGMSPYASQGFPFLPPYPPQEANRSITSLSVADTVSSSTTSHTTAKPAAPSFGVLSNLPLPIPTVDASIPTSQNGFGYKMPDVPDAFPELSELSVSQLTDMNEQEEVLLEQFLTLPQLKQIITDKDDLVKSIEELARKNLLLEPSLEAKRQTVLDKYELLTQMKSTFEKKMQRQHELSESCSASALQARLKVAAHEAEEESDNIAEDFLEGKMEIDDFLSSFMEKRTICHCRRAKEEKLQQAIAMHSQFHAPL

B1: UBAP1 (protein, UniProt Q9NZ09 1-502)
chain: MASKKLGADFHGTFSYLDDVPFKTGDKFKTPAKVGLPIGFSLPDCLQVVREVQYDFSLEKKTIEWAEEIKKIEEAEREAECKIAEAEAKVNSKSGPEGDSKMSFSKTHSTATMPPPINPILASLQHNSILTPTRVSSSATKQKVLSPPHIKADFNLADFECEEDPFDNLELKTIDEKEELRNILVGTTGPIMAQLLDNNLPRGGSGSVLQDEEVLASLERATLDFKPLHKPNGFITLPQLGNCEKMSLSSKVSLPPIPAVSNIKSLSFPKLDSDDSNQKTAKLASTFHSTSCLRNGTFQNSLKPSTQSSASELNGHHTLGLSALNLDSGTEMPALTSSQMPSLSVLSVCTEESSPPNTGPTVTPPNFSVSQVPNMPSCPQAYSELQMLSPSERQCVETVVNMGYSYECVLRAMKKKGENIEQILDYLFAHGQLCEKGFDPLLVEEALEMHQCSEEKMMEFLQLMSKFKEMGFELKDIKEVLLLHNNDQDNALEDLMARAGAS

Biological target: TurboID-GRA64 fusion protein (3×HA-TurboID on the N terminus of endogenous GRA64) (Toxoplasma gondii) (UniProt S8GNR6)
Assay: proximity labelling; TurboID-GRA64 parasites in human foreskin fibroblasts, bradyzoite growth conditions, 150 μM biotin for 3 days; RIPA lysate, streptavidin agarose, LC-MS/MS; untagged PruQ as control

| Molecule | binding |
| --- | --- |
| TSG101 (from UniProt Q99816 1-390) | binds |
| ALIX (from UniProt Q8WUM4 1-868) | binds |
| VPS37A (from UniProt Q8NEZ2 1-397) | binds |
| B1 | binds |
